According to PubChem BioAssay AID2718 (Broad Institute, 2010):
In all, about 320,000 compounds went through this assay and about 480 (0.15%) were called active. Inconclusive means that the source gave no clear call. Such entries were picked first, then a sample of the others. Rule as the data show it: active = inhibition above about 26% (passing the limit was not always enough); inconclusive = no clear call, values can overlap the other calls.

Chains of the proteins cited; added tags and fusions are not shown.
UniProt O15379, whole entry, looked up: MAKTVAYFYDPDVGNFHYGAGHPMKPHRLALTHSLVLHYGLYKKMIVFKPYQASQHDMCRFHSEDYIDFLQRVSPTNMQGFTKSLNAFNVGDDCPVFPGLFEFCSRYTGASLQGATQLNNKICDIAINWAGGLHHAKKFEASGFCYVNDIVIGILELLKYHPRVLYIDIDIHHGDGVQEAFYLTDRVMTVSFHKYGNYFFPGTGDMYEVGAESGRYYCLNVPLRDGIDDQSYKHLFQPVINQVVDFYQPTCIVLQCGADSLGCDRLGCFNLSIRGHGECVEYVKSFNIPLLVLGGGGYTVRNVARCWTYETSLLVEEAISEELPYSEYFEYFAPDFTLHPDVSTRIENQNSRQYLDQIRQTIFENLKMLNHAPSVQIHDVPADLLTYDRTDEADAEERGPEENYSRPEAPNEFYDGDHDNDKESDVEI

biological target: Histone deacetylase 3 (Homo sapiens) (UniProt O15379); experiment: HDAC3 deacetylase inhibitors, primary screen, biochemical, fluorescence, cell-free homogeneous (AID 2718); conditions: recombinant HDAC3, fluorogenic peptide/trypsin coupled, at 8.3 µM, stronger effect = higher value

Compound | inhibition
COc1cc(/C=N/NC(=O)c2nc3ccccn3c2C)cc(OC)c1O | inactive: -0.793%
COc1ccccc1OCC(=O)NCCCn1ccnc1 | inconclusive: 19.6%
CC1CC(C)CN(CCOCCSc2ccccc2)C1 (centres undefined) | inconclusive: 16.4%
CCOC(=O)C1=C(O)C(=O)N(c2ccccc2)C1c1cccc([N+](=O)[O-])c1 (centres undefined) | inconclusive: 19.9%
O=C(NCCc1ccccc1)c1cnc2n(c1=O)CCS2 | inconclusive: 25.2%
C/C(=N/NC(=O)c1ccncc1)c1ccc2c(c1)OCO2 | inconclusive: 21.8%
Cc1cc(C)cc(NC(=S)Nc2ccc(Cl)c(Cl)c2)c1 | inconclusive: 22.7%
COc1ccc(-c2n[nH]c(=S)n2/N=C/c2cccn2C)cc1 | inconclusive: 27.2%
CC(C)(C)C(=O)Nc1ccccc1C(=O)NCCCn1ccnc1 | inconclusive: 14.5%
Cc1ccc(N2C(=O)CC(Sc3nc4ccccc4o3)C2=O)cc1Cl (centres undefined) | inactive: 1.66%
COc1cccc(OCc2cc(C(=O)NCc3ccc4c(c3)OCO4)no2)c1 | inconclusive: 22%
COc1cc2[nH]c(=S)n(CCN3CCOCC3)c(=O)c2cc1OC | inconclusive: 15%
CCN(CC)c1ccc(NC(=O)CCNS(=O)(=O)c2ccc3c(c2)CCC(=O)N3)c(C)c1 | inconclusive: 17.4%
CSc1sc(-c2n[nH]c(=S)n2C)c2c1C=CCC2 | active: 34.4%
CC(C)c1ccc(C(CC(=O)O)N2Cc3ccccc3C2=O)cc1 (centres undefined) | inconclusive: 11.1%
N#C/C(=C\c1c(N2CCCCCC2)nc2ccccn2c1=O)C(=O)NCc1ccco1 | inactive: -2.27%
COc1cc(NC(=O)COc2ccc(-n3cnnn3)cc2)cc(OC)c1OC | inconclusive: 15.4%
C#CCOC(=O)c1ccccc1C(=O)n1nnc2ccccc21 | active: 93.9%
CCC1CCCCN1C(=O)CCCc1ccccc1 (centres undefined) | inconclusive: 14.9%
COC(=O)c1cccc(C(=O)N2CCCC(Nc3ccc4c(c3)OCCO4)C2)c1 (centres undefined) | inconclusive: 20.3%

Compound | inhibition
Cc1nc2cc(C(F)(F)F)ccc2n1C | inactive: -7.41%
COC(=O)c1c(N)n(CCCN2CCOCC2)c2nc3ccccc3nc12 | inactive: -11.7%
CC(=O)c1c(C)nn(CC(O)COc2ccc3c(c2)CCC3)c1C (centres undefined) | inconclusive: 15%
CCC(C)(C#CCN1CCCCC1)OCCC#N (centres undefined) | inactive: 1.77%
CCOC(=O)CSc1cn2c(n1)CCC2 | inconclusive: 25.3%
COC(=O)Cc1ccc(NC(=S)N2CCC(Cc3ccccc3)CC2)cc1 | inconclusive: 10.1%
O=C(CSc1cccs1)NCCc1ccccc1 | inconclusive: 17.8%
O=C(O)/C=C\c1cccc(-n2nnnc2SCc2ccccc2F)c1 | inactive: 3.81%
CN1CCN(C=NC2=NN(c3cccc(C(F)(F)F)c3)CC2)CC1 | inactive: 1.97%
CCS(=O)(=O)C(=C1NCCO1)S(=O)(=O)CC | inconclusive: 18.8%
Cc1ccc(S(=O)(=O)NCCNc2ccc(Br)c(C)c2)cc1 | inconclusive: 23.3%
Cc1nc(/C(N)=N/OC(=O)Cc2ccccc2)no1 | inconclusive: 15.4%
FC(F)(F)c1ccc2c(c1)[nH]c(=S)n2C1CC1 | inactive: -3.5%
Cc1c(C)n(Cc2ccccc2)c2ccc(C(=O)OCCN(C)C)cc12 | inactive: 7.3%
COc1ccc(Nc2nc(N3CCCCC3)c3ccccc3n2)cc1 | inactive: 5.33%
Cc1ccc(C)c(-c2cc(C(=O)NC3CC3)c3ccccc3n2)c1 | inactive: 7.84%
COc1cccc(CC(NC(C)=O)C(=O)NC2CCN(S(=O)(=O)c3ccc(NC(C)=O)cc3)CC2)c1 (centres undefined) | inconclusive: 25.3%
Cc1cc(Cn2nc(-c3ccccc3)cc2C(=O)NCc2cccc(C(F)(F)F)c2)on1 | inconclusive: 24.2%
N#Cc1c(Nc2ccccc2)c(/C=N/N=C/c2ccccc2)c[nH]c1=O | inactive: 13.7%
Oc1ccc(C[C@@H]2CNC(=S)N2CCCCC2CCCCC2)cc1 | inconclusive: 15.5%

Four compounds picked at random from those above, as already listed:
Compound | inhibition
CCS(=O)(=O)C(=C1NCCO1)S(=O)(=O)CC | inconclusive: 18.8%
CN1CCN(C=NC2=NN(c3cccc(C(F)(F)F)c3)CC2)CC1 | inactive: 1.97%
CCC(C)(C#CCN1CCCCC1)OCCC#N (centres undefined) | inactive: 1.77%
COC(=O)Cc1ccc(NC(=S)N2CCC(Cc3ccccc3)CC2)cc1 | inconclusive: 10.1%

(cont.)

Compound | inhibition
CCCCNC(=S)Nc1ccc(OC)nc1 | inconclusive: 21.3%
Cn1c(=O)n(C)c2cc(S(=O)(=O)Nc3ccccc3)ccc21 | inactive: -4.16%
COc1cc(NC(=S)Nc2ccccn2)cc(OC)c1 | inconclusive: 14%
Cc1ccc(C)c(N2CCN(C(=O)c3ccc4nc(-c5ccco5)c(-c5ccco5)nc4c3)CC2)c1 | inactive: 13.4%
Cc1ccc(/C=N\NC(=O)COc2ccc(C)cc2[N+](=O)[O-])cc1 | inactive: -0.752%
O=[N+]([O-])CC(c1ccc(F)cc1)c1c[nH]c2ccccc12 (centres undefined) | inactive: 12.8%
Cc1ccc(C)c(NC(=O)C(Sc2nc3ccccc3c(=O)n2CC(C)C)c2ccccc2)c1 (centres undefined) | inactive: 1.42%
O=C(Nc1ccccc1)c1ccccc1CSc1ccccc1 | inconclusive: 16.5%
Cc1csc(SCCN2C(=O)c3ccccc3C2=O)n1 | inconclusive: 10.5%
COc1ccc(-c2nc3cnccn3c2NCc2ccccc2)cc1SC1CCCCC1 | active: 29.5%
O=C(CN1C(=O)S/C(=C\C=C\c2ccccc2)C1=O)Nc1ccccc1C(=O)O | inconclusive: 11.3%
CCN(CC)S(=O)(=O)c1ccc(C(=O)Oc2cc(C)[nH]c(=O)c2[N+](=O)[O-])cc1 | inconclusive: 16.3%
COc1ccc(/C=C2/NC(=O)N(Cc3ccccc3F)C2=O)cc1OC | inconclusive: 22.1%
Cc1sc2ncn(CC(=O)NCCN3CCOCC3)c(=O)c2c1S(=O)(=O)N1CCC(C)CC1 | inconclusive: 15.8%
O=C(CC12CC3CC(CC(C3)C1)C2)NCC(=O)OCc1cc(=O)oc2ccc3ccccc3c12 | inactive: -6.53%
CC(=O)c1ccc(N2CCN(C(=O)CN(C)S(=O)(=O)c3cnc[nH]3)CC2)cc1 | inconclusive: 19.1%
CCN(CC)c1ccc(CNCc2cccs2)cc1 | inactive: -9.09%
C=CCN(c1ccccc1OC)S(=O)(=O)c1cccc(C(=O)Nc2nnc(C3CC3)s2)c1 | inconclusive: 34.1%
CCOC(=O)/C(=N\Nc1cccc(C(F)(F)F)c1)N(CCOC)CCOC | inactive: 6.22%
